The target of test [1] is Protein phosphatase-1 (PP1) fused to LgBiT (UniProt P62136). The experiment in a line: split reporter.
The target in a further test is V5-tagged PP1 alpha (UniProt P62136). In words: co-IP.

Sequences of proteins named here, by UniProt entry; tags and fusion partners are left off.
UniProt P62136, whole entry: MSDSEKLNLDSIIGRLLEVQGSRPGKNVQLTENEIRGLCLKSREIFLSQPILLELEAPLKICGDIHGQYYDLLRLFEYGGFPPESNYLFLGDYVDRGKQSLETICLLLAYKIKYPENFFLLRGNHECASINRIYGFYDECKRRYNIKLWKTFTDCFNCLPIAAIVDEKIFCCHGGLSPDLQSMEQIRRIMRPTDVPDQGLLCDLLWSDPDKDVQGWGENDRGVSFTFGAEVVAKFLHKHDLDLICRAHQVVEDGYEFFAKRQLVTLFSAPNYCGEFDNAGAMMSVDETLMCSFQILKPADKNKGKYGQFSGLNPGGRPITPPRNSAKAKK

Results are given in words; binding and its absence hold for the method and conditions named. Binding seen in cells or lysates may run through a third protein. Some binding calls cover weakened binding; strength is not graded here.

With “Ebola virus nucleoprotein (NP), wild type, split NanoBiT fusion (from UniProt P18272 1-739)”, in test [1], the binding result was “binds”.

“Flag-tagged NP, wild type (co-immunoprecipitation) (from UniProt P18272 1-739)”: in the test with V5-tagged PP1 alpha, the binding result was “binds”.

Source of the values: article PMC10274954.
